# What was measured:
# [1] = tested on: CYP2C9; assay: in vitro; format: in vitro ADME; settings: human, mRNA levels EC50, donor 2, 72 h
# [2] = tested on: CYP2C19; assay: in vitro; format: in vitro ADME; settings: human
# [3] = Study 1; format: in vivo, human; settings: single 25-mg oral dose of [14C]-esmethadone
# [4] = tested on: CYP2C8; assay: in vitro; format: in vitro ADME; settings: human, mRNA levels EC50, donor 2, 72 h
structure (smiles),measurement,setting,value
CCC(=O)C(C[C@H](C)N(C)C)(c1ccccc1)c1ccccc1 [esmethadone],EC50 at 72 h,[1],6.31 µM
same,EC50 at 72 h,[2],6.68 µM
same,Radioactivity excreted in feces,[3],39.1 % of the dose
same,EC50 at 72 h,[4],6.42 µM
